# Patent US20080274978A1 (POSTECH FOUNDATION, published 2008)
# No constants are given. Whether binding was seen depends on the method and setting. Some results given as binding are weak or reduced against the parent protein; the word gives no strength. Tags and fused reporters may be left off the sequences shown.
# T1: Formyl peptide receptor like 1 (FPRL1) (human, UniProt P25090 1-351)
# T1 sequence (looked up): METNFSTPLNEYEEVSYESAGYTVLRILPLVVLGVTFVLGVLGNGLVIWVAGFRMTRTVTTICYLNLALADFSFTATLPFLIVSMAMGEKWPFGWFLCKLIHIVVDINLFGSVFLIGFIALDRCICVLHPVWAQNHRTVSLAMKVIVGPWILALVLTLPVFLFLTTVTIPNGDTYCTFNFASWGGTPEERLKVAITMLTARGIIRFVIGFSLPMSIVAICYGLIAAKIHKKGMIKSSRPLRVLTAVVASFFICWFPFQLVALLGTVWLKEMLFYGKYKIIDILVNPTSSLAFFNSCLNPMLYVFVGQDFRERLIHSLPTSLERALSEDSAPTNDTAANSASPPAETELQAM
# B1: Arg-Arg-Trp-Trp-Trp-Trp-CONH2 (RRWWWW, RRW^4) (peptide)
# peptide: RRWWWW
# modifications: C-terminal amide (CONH2)
# B2: Arg-His-Trp-Trp-Trp-Trp-CONH2 (RHWWWW, RHW^4) (peptide)
# peptide: RHWWWW
# modifications: C-terminal amide (CONH2)
# B3: Asp-Arg-Trp-Trp-Trp-Trp-CONH2 (DRWWWW, DRW^4) (peptide)
# peptide: DRWWWW
# modifications: C-terminal amide (CONH2)
# B4: Trp-Arg-Trp-Trp-Trp-Trp-CONH2 (WRWWWW, WRW^4) (peptide)
# peptide: WRWWWW
# modifications: C-terminal amide (CONH2)
# Target: T1, Formyl peptide receptor like 1 (FPRL1)
# Experiment: displacement of 125I-WKYMVm from FPRL1-expressing RBL-2H3 cells
row,binding,Binder
1,binds,B1
2,binds,B2
3,binds,B3
4,binds,B4
